These are yes or no findings as the source states them, for the method shown. For some assays here: Binding seen in cells or lysates may run through a third protein. Some entries that bind do so weakly or less than the wild type. For some assays here: Where a sequence is shown, tags or fusion partners need not be part of it.
T1: BIN4, Topoisomerase VI subunit, full-length cDNA as yeast two-hybrid bait (Arabidopsis thaliana) (UniProt Q9FLU1)
T1 sequence: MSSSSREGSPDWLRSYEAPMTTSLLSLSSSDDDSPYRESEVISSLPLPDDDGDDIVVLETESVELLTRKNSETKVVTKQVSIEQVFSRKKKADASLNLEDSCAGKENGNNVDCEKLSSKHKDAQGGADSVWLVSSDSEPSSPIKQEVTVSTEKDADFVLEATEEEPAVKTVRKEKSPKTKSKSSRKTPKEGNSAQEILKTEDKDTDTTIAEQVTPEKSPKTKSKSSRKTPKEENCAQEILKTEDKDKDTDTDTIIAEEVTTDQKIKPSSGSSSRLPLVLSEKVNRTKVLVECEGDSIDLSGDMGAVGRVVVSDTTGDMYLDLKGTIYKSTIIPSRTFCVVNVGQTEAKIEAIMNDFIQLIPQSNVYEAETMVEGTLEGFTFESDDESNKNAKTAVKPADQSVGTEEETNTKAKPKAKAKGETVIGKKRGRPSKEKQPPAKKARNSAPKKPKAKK

T2: BIN4-cYFP (Arabidopsis thaliana) (UniProt Q9FLU1)
T2 sequence: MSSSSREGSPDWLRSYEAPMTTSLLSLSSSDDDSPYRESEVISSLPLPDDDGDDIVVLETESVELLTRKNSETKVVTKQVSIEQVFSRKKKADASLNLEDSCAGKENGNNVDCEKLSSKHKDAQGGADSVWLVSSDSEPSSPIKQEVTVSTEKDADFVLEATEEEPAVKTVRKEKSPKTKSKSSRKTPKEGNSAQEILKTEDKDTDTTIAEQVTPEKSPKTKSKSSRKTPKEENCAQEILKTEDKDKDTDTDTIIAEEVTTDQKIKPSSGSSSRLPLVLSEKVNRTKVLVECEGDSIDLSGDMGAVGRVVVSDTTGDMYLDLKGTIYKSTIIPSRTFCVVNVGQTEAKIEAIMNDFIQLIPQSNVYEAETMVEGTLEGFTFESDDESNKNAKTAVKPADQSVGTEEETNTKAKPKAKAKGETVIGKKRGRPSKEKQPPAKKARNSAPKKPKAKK


How the values were obtained:
[1] = target: T1, BIN4, Topoisomerase VI subunit, full-length cDNA as yeast two-hybrid bait (Arabidopsis thaliana); assay: two-hybrid
[2] = target: T2, BIN4-cYFP (Arabidopsis thaliana); assay: split reporter

| Binder | binding [1] | binding [2] |
| --- | --- | --- |
| NLS-SMC3(193-807)-nYFP (domain or fragment, UniProt Q56YN8 193-807) VHYLDERLRELDEEKEELRKYQQLDKQRKSLEYTIYDKELHDAREKLEQVEVARTKASEESTKMYDRVEKAQDDSKSLDESLKELTKELQTLYKEKETVEAQQTKALKKKTKLELDVKDFQDRITGNIQSKNDALEQLNTVEREMQDSLRELEAIKPLYESQVDKENQTSKRINELEKTLSILYQKQGRATQFSNKAARDKWLRKEIEDLKRVLDSNTVQEQKLQDEILRLNTDLTERDEHIKKHEVEIGELESRISKSHELFNTKKRERDEEQRKRKEKWGEESQLSSEIDKLKTELERAKKNLDHATPGDVRRGLNSIRRICADYRINGVFGPLVELVDCDEKFFTAVEVTAGNSLFNVVVENDDISTKIIRHLNSLKGGRVTFLPLNRIKAPRVNYPKDSDAIPLLKKLKFDSKFEPALGQVFGRTVVCRDLNVATRVAKNDDLDCITMEGDQVSRKGGMTGGFYDHRRSKLRFMNIIMQNTKSINEKEKELEDVRRQLQVIDQQITQLVTEQQRLEADWTLCKLQVEQLKQEIANANKQKHAIHKAIEYKEKLLGDIRTRIDQVRSSMSMKEAEMGTELVDHLTPEEREQLSKLNPEIKDLKEKKFAYQAD |  | binds |
| NLS-SMC3(193-807, Δ525-632)-nYFP (domain or fragment, UniProt Q56YN8) VHYLDERLRELDEEKEELRKYQQLDKQRKSLEYTIYDKELHDAREKLEQVEVARTKASEESTKMYDRVEKAQDDSKSLDESLKELTKELQTLYKEKETVEAQQTKALKKKTKLELDVKDFQDRITGNIQSKNDALEQLNTVEREMQDSLRELEAIKPLYESQVDKENQTSKRINELEKTLSILYQKQGRATQFSNKAARDKWLRKEIEDLKRVLDSNTVQEQKLQDEILRLNTDLTERDEHIKKHEVEIGELESRISKSHELFNTKKRERDEEQRKRKEKWGEESQLSSEIDKLKTELERAKKNLDHATPGDVRRGLNSIRRICADYRINGVVAKNDDLDCITMEGDQVSRKGGMTGGFYDHRRSKLRFMNIIMQNTKSINEKEKELEDVRRQLQVIDQQITQLVTEQQRLEADWTLCKLQVEQLKQEIANANKQKHAIHKAIEYKEKLLGDIRTRIDQVRSSMSMKEAEMGTELVDHLTPEEREQLSKLNPEIKDLKEKKFAYQAD |  | no binding |

Second part, the binder after the results:

| binding [1] | binding [2] | Binder |
| --- | --- | --- |
| binds |  | SMC3 193-807, yeast two-hybrid prey clone pB27A-36 (domain or fragment, UniProt Q56YN8 193-807) VHYLDERLRELDEEKEELRKYQQLDKQRKSLEYTIYDKELHDAREKLEQVEVARTKASEESTKMYDRVEKAQDDSKSLDESLKELTKELQTLYKEKETVEAQQTKALKKKTKLELDVKDFQDRITGNIQSKNDALEQLNTVEREMQDSLRELEAIKPLYESQVDKENQTSKRINELEKTLSILYQKQGRATQFSNKAARDKWLRKEIEDLKRVLDSNTVQEQKLQDEILRLNTDLTERDEHIKKHEVEIGELESRISKSHELFNTKKRERDEEQRKRKEKWGEESQLSSEIDKLKTELERAKKNLDHATPGDVRRGLNSIRRICADYRINGVFGPLVELVDCDEKFFTAVEVTAGNSLFNVVVENDDISTKIIRHLNSLKGGRVTFLPLNRIKAPRVNYPKDSDAIPLLKKLKFDSKFEPALGQVFGRTVVCRDLNVATRVAKNDDLDCITMEGDQVSRKGGMTGGFYDHRRSKLRFMNIIMQNTKSINEKEKELEDVRRQLQVIDQQITQLVTEQQRLEADWTLCKLQVEQLKQEIANANKQKHAIHKAIEYKEKLLGDIRTRIDQVRSSMSMKEAEMGTELVDHLTPEEREQLSKLNPEIKDLKEKKFAYQAD |
|  | binds weakly | NLS-SMC3(193-555)-nYFP (domain or fragment, UniProt Q56YN8 193-555) VHYLDERLRELDEEKEELRKYQQLDKQRKSLEYTIYDKELHDAREKLEQVEVARTKASEESTKMYDRVEKAQDDSKSLDESLKELTKELQTLYKEKETVEAQQTKALKKKTKLELDVKDFQDRITGNIQSKNDALEQLNTVEREMQDSLRELEAIKPLYESQVDKENQTSKRINELEKTLSILYQKQGRATQFSNKAARDKWLRKEIEDLKRVLDSNTVQEQKLQDEILRLNTDLTERDEHIKKHEVEIGELESRISKSHELFNTKKRERDEEQRKRKEKWGEESQLSSEIDKLKTELERAKKNLDHATPGDVRRGLNSIRRICADYRINGVFGPLVELVDCDEKFFTAVEVTAGNSLFNVVV |
|  | binds weakly | NLS-SMC3(602-807)-nYFP (domain or fragment, UniProt Q56YN8 602-807) KKLKFDSKFEPALGQVFGRTVVCRDLNVATRVAKNDDLDCITMEGDQVSRKGGMTGGFYDHRRSKLRFMNIIMQNTKSINEKEKELEDVRRQLQVIDQQITQLVTEQQRLEADWTLCKLQVEQLKQEIANANKQKHAIHKAIEYKEKLLGDIRTRIDQVRSSMSMKEAEMGTELVDHLTPEEREQLSKLNPEIKDLKEKKFAYQAD |

Source: paper doi:10.1101/2022.10.27.514040
